Patent US20050142531A1, “Peptidically buffered formulations for electrotransport applications and methods of making” (priority 2003, published 2005)
Like-named read-outs stand apart in the source and are kept apart here. Not every detail of the peptide structures is certain; ends, links or a residue may be inferred. Peptide text beside a SMILES is read from it.

Assay: pKa, pI and % salt of peptidic buffers
Format: physicochemical
Settings: for % salt: fraction ionized with net charge in aqueous solution at pH equal to the pI

Row | SMILES | pI | pI (Table 2) | % salt [%] | other results
1 | NCC(=O)NCC(=O)N[C@@H](Cc1c[nH]cn1)C(=O)O [Gly-Gly-His] (H-Gly-Gly-His-OH; N-terminus and C-terminus assumed) | 7.5 | – | – | –
2 | NCC(=O)N[C@@H](Cc1c[nH]cn1)C(=O)O [Gly-His] (H-Gly-His-OH; N-terminus and C-terminus assumed) | – | – | – | fraction of neutral species at the pI (Gly-His at pH 7.5): 70%; fraction of salt form (charged species) at the pI (Gly-His at pH 7.5): 30%
3 | N[C@@H](Cc1c[nH]cn1)C(=O)NCC(=O)NCC(=O)O [His-Gly-Gly] (H-His-Gly-Gly-OH; N-terminus and C-terminus assumed) | 6.9 | – | – | –
4 | NCC(O)CC[C@H](N)C(=O)N[C@@H](Cc1c[nH]cn1)C(=O)O (some centres unmarked) [Hydroxylysine-His] | – | 8.60 | 13 | –
5 | O=C(O)[C@H](Cc1c[nH]cn1)NC(=O)[C@@H]1CCCN1 [Pro-His] | – | 7.90 | 11 | –
